The values below come from US20040096941A1 (priority 2002, published 2004).

A short description of this series: peptide synthesis. To be noted: late stage modification step.

The substance “Fmoc-Tyr(SO3H)-Ile-Tyr(SO3H)-Thr-Lys(^εN-(Ahx)2)” registered a step yield of 70%.
